In publication PMC11967818 one finds binding data, which are given here for 3 substances.

By UniProt entry, the sequences of proteins in these tests, tags left out.
UniProt Q9Z204: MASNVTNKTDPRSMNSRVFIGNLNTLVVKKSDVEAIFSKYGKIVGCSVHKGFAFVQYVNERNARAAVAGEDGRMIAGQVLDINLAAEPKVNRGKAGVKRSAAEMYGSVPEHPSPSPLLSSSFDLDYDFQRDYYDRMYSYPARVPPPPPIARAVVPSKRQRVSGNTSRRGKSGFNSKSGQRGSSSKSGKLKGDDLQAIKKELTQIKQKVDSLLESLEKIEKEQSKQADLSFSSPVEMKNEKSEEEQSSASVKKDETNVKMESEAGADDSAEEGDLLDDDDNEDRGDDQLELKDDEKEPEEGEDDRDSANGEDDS
UniProt P70372: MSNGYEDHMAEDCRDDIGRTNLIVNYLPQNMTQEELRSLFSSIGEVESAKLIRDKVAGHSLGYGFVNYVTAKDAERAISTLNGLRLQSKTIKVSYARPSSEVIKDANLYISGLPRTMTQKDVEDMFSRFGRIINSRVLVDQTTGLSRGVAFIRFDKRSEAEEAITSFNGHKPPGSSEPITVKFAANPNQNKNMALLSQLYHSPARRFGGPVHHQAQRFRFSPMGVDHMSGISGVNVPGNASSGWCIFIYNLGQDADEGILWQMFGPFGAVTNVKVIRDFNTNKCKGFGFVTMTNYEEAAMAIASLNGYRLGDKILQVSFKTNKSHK
UniProt Q6P4T2: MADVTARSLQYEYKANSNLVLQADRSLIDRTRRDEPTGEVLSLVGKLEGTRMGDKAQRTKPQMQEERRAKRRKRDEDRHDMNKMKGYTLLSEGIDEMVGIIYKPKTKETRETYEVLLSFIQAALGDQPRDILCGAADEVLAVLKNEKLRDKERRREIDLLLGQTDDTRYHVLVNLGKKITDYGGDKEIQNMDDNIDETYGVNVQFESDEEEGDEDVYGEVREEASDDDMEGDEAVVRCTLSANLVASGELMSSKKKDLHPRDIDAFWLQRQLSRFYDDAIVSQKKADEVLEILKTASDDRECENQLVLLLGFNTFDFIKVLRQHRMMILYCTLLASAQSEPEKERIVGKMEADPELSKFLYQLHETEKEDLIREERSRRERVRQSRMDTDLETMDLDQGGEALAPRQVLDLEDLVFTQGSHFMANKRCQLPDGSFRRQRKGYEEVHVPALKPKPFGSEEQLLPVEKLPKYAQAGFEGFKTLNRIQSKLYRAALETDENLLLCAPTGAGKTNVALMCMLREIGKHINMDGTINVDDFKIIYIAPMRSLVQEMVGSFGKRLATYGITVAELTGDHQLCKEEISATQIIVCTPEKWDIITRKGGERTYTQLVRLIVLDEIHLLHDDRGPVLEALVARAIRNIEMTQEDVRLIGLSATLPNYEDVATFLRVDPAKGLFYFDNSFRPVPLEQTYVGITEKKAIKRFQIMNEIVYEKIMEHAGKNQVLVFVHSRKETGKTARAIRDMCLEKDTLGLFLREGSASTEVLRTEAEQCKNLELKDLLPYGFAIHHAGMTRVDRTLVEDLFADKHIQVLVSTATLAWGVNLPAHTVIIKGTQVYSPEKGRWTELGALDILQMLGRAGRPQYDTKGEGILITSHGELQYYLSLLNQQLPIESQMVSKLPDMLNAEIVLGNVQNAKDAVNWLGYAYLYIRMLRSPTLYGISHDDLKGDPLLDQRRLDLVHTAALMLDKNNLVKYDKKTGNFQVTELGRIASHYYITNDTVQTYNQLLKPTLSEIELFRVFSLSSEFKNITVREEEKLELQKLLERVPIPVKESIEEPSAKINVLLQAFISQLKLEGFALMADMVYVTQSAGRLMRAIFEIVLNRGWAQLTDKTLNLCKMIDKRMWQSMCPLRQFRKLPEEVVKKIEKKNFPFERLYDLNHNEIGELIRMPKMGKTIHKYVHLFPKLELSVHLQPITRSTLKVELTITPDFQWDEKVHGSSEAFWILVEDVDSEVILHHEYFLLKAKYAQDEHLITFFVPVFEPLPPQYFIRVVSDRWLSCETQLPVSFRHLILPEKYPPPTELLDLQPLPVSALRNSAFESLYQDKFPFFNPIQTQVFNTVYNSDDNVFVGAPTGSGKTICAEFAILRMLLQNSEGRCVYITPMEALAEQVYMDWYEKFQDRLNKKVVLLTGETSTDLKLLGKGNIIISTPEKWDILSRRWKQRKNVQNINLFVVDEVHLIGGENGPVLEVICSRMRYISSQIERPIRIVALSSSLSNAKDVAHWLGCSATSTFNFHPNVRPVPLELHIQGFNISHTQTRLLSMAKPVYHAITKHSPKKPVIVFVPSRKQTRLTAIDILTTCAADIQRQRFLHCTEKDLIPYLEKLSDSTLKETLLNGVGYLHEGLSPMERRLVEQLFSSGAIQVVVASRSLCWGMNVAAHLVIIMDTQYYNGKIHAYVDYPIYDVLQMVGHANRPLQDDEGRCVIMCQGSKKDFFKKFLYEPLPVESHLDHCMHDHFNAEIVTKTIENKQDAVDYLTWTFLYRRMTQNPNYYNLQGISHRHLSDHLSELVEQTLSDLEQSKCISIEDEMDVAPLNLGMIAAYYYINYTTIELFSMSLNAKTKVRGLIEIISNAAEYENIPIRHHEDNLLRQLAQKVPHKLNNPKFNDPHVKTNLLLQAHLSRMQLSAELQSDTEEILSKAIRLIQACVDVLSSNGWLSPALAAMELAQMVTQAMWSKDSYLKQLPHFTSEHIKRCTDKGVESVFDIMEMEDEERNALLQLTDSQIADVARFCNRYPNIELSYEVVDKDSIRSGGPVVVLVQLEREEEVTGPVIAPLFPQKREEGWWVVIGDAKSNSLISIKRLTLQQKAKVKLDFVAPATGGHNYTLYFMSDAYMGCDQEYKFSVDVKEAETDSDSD
UniProt Q9R0U0: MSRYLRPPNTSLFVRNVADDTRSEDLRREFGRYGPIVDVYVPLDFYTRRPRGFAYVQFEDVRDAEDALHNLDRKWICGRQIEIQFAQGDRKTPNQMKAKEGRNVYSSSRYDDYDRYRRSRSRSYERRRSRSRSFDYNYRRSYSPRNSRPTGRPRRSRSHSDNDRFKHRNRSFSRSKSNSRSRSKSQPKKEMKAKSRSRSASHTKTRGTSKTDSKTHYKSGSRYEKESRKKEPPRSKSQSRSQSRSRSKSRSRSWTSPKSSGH

No constants are given. Whether binding was seen depends on the method and setting. Binding seen in cells or lysates may run through a third protein. Here binding means that the protein was enriched with, or labelled near, the bait; the list need not be complete.

For the assay, the target named is hnRNPC (mouse (endogenous in P8 testes)) (UniProt Q9Z204). Kind of assay: affinity purification with mass spectrometry; P8 mouse testis lysate; immunoprecipitation with anti-hnRNPC antibody or IgG on Protein G magnetic beads; SDS-PAGE, in-gel trypsin digestion, LC-MS/MS (Q Exactive), MaxQuant against Mus musculus.

With HuR (from UniProt P70372 1-326), the binding entry is reported as “binds”.

As for SNRNP200 (from UniProt Q6P4T2 1-2136), the binding entry is reported as “binds”.

SRSF10 (from UniProt Q9R0U0 1-262): the binding result is “binds”.
